From patent US20220193170A1, “Nutraceutical Reduction Prevention and/or Reversion of Multiple Sclerosis” (Therapeutic Solutions International, Inc., priority 2020, published 2022)
For at least one compound, name, drawing or mass did not settle the structure.

Experiments:
[1] = tested on: oxygen-induced retinopathy; settings: OIR mice, cited from earlier work
[2] = tested on: Experimental autoimmune encephalomyelitis; assay: Experimental autoimmune encephalomyelitis (EAE) clinical score; assay type: in vivo; settings: female SJL/J mice, by gavage, alone and/or with Copaxone, observed at days 10, 20 and 30; bar graph
Experimental: (§1) Experimental autoimmune encephalomyelitis was induced in female SJL/J (6-8 weeks old) by injection PLP139-151 peptide (50 μg) emulsified in complete Freund's adjuvant (BD Diagnostics), containing killed Mycobacterium tuberculosis (400 μg/ml) in a volume of (50 μl per area). Animals were randomized to receive by QuadraMune™ by gavage, and/or Copaxone. Mice where observed for symptoms at days 10, 20 and 30.
Clinical scores (0, no symptoms; 1, limp tail; 2, partial paralysis of hind limbs; 3, complete paralysis of hind limbs or partial hind and front limb paralysis; 4, tetraparalysis; 5, moribund; 6, death).
as §1, with “PLP^139-151” for “PLP139-151”, “pterostilbene” for “by QuadraMune™”
as §1, with “sulforaphane” for “by QuadraMune™”, “Mice where observed for symptoms at days 10, 20 and 30.” left out

Compound	extension of neovascular and avascular areas ([1]; UDCA 50 mg/kg, P7-P17)	OIR-induced blood retinal barrier dysfunction [1]	ganglion cell survival [1]	reactive gliosis [1]	EAE Score [2]
C[C@H](CCC(=O)O)[C@H]1CC[C@H]2[C@@H]3[C@@H](O)C[C@@H]4C[C@H](O)CC[C@]4(C)[C@H]3CC[C@]12C [UDCA, ursodeoxycholic acid]	decreased	ameliorated	preserved	prevented	–
COc1cc(/C=C/c2ccc(O)cc2)cc(OC)c1 [pterostilbene]	–	–	–	–	reduction in EAE Score
